# Laboratory results: PubChem BioAssay AID743121 (NCATS, 2013)
# Aim: 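Partners whose loss is lethal together with topoisomerase I blockade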 (primary screen)
# System: MDA-MB-231 cells, a human breast cancer line
# Reagent: single siRNA against human genes, 20 nM siRNA (0.8 pmol per well)
# Time to read-out: 120 h (drug added 48 h after transfection, read 72 h later)
# Conditions: camptothecin 20 nM (about EC30) for 72 h; vehicle 0.1% DMSO in parallel plates
# Read-out: 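CellTiter-Glo ATP signal, scaled to control siRNA as percent viability; sensitisation given as log2 of untreated divided by camptothecin-treated viability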
# Reading the numbers: log2 vehicle/camptothecin viability: higher = stronger sensitisation to camptothecin; viability with camptothecin and viability without drug: higher = more viable cells
# Active means: 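Active genes have an RSA gene-level p-value below 0.001, computed from the ratios of their separate siRNAs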
# The whole screen tested about 26,000 reagents; this is a part drawn at random. 167 of them (0.63%) were called active. 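Calls are per gene from RSA p-values that are not deposited; an individual active-marked siRNA can sensitise only weakly.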 The numbers tell different reagents against one gene apart.
gene,reagent no.,log2 vehicle/camptothecin viability,viability with camptothecin (% of control),viability without drug (% of control),activity call
PHYKPL,1,-0.0397,70.2,68.3,inactive
PHYKPL,2,0.301,35.9,44.2,inactive
PHYKPL,3,0.478,60,83.5,inactive
FBXO42,1,-0.638,88.5,56.9,inactive
FBXO42,2,-0.282,98.6,81.1,inactive
FBXO42,3,-0.196,66.4,57.9,inactive
FBXO42,4,-0.187,59.6,52.3,inactive
EIF6,1,-0.0781,84.6,80.2,inactive
EIF6,2,0.0719,62.1,65.3,inactive
EIF6,3,-0.213,57.7,49.7,inactive
GPR183,1,0.059,68.2,71,inactive
GPR183,2,-0.254,57.8,48.5,inactive
GPR183,3,0.548,54.6,79.9,inactive
GPR183,4,-0.0347,92.2,90,inactive
OTOF,1,-0.512,53.1,37.3,inactive
OTOF,2,-0.235,104,88.2,inactive
OTOF,3,-0.148,62,56,inactive
OTOF,4,-0.579,123,82,inactive
FRK,1,-0.325,102,81.1,inactive
FRK,2,0.143,40.1,44.3,inactive
FRK,3,0.116,88.1,95.4,inactive
FRK,4,0.0359,60.1,61.6,inactive
MCOLN2,1,-0.227,120,102,inactive
MCOLN2,2,-0.245,113,95.5,inactive
MCOLN2,3,0.254,70.4,83.9,inactive
MCOLN2,4,-0.339,76.6,60.5,inactive
TRIB3,1,0.599,46.6,70.6,inactive
TRIB3,2,0.178,94.5,107,inactive
TRIB3,3,-0.681,32.2,20.1,inactive
TRIB3,4,-0.309,15.4,12.4,inactive
TRIB3,5,-0.000336,103,102,inactive
STX11,1,-0.276,110,91.1,inactive
STX11,2,-0.582,95.7,63.9,inactive
STX11,3,-0.447,80,58.7,inactive
STX11,4,-0.0577,103,99.4,inactive
GBE1,1,0.605,44.9,68.2,inactive
GBE1,2,0.358,72.6,93,inactive
GBE1,3,0.16,103,115,inactive
GBE1,4,-0.118,72.4,66.7,inactive
AIRE,1,-0.0819,41.3,39,inactive
AIRE,2,-0.172,71.6,63.6,inactive
AIRE,3,-0.00739,71.1,70.7,inactive
AIRE,4,0.0956,95,101,inactive
MSR1,1,-0.485,95.6,68.3,inactive
MSR1,2,-0.04,100,97.2,inactive
MSR1,3,-0.357,63.3,49.4,inactive
MSR1,4,0.303,55.2,68.1,inactive

Records listed so far whose target name begins with F or f (8):
gene,reagent no.,log2 vehicle/camptothecin viability,viability with camptothecin (% of control),viability without drug (% of control),activity call
FBXO42,1,-0.638,88.5,56.9,inactive
FBXO42,2,-0.282,98.6,81.1,inactive
FBXO42,3,-0.196,66.4,57.9,inactive
FBXO42,4,-0.187,59.6,52.3,inactive
FRK,1,-0.325,102,81.1,inactive
FRK,2,0.143,40.1,44.3,inactive
FRK,3,0.116,88.1,95.4,inactive
FRK,4,0.0359,60.1,61.6,inactive
